Test results from patent US10780076B2, “Inhibition of cancer cell motility” (Northwestern University, priority 2014, dated 2020).
At least one compound was matched to its structure with a doubt left.

By UniProt entry, the sequences of proteins in these tests, tags left out.
UniProt P08238, whole entry: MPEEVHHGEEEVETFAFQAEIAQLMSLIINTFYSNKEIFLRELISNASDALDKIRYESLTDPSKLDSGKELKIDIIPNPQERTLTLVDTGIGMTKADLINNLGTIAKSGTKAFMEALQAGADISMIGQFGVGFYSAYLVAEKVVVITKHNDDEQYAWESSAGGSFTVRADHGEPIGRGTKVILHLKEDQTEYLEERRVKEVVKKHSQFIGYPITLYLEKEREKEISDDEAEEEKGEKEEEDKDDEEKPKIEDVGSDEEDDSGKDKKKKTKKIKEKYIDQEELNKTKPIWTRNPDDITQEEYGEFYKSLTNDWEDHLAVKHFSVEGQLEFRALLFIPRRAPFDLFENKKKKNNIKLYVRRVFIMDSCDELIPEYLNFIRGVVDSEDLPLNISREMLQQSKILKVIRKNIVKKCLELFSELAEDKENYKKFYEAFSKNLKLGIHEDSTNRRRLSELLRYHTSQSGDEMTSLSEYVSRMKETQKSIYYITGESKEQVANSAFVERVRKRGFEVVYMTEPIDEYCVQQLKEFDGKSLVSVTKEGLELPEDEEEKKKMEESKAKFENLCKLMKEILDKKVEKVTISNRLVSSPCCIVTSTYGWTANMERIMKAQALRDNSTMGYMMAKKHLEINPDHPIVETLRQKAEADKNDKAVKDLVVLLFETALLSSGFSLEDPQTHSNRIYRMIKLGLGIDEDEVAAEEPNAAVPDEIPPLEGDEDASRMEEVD

Columns and labels:
HSP90β = HSP90β (Homo sapiens, UniProt P08238); test: Isothermal titration calorimetry, thermal shift and DARTS on single protein; assay type: binding; conditions: purified recombinant protein
[1] = tested on: p38 MAPK and HSP27 phosphorylation in PC3-M cells; test: Phosphoprotein Western blot after TGFβ; assay type: cell-based, human; conditions: 50 μM, 24 hours, then TGFβ
MKK4 [2] = target: T1, MKK4 (Homo sapiens, UniProt P45985); test: MKK4 in vitro kinase assay; assay type: biochemical; conditions: recombinant activated MKK4, substrate kinase dead p38a MAPK (K53A)
T1 sequence (P45985 1-399): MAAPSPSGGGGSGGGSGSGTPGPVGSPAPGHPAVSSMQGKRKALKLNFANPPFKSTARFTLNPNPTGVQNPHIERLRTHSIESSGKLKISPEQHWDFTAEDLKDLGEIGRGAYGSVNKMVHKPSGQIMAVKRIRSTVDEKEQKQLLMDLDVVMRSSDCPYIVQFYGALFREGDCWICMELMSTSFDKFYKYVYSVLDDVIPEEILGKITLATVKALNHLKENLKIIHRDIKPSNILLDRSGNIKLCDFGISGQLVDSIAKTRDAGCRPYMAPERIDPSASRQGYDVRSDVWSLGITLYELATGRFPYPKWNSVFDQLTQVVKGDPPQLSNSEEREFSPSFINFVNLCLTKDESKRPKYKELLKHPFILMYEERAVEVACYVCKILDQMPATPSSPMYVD

[3] = tested on: human breast cancer LM2-4H2N cells; test: Orthotopic breast cancer model, post-surgery adjuvant survival; assay type: in vivo, mice; conditions: daily oral gavage five times/week
20 phosphatases = test: PhosphataseProfiler assay platform; assay type: biochemical
[4] = tested on: human prostate, breast, colon and lung cancer cells; test: Single cell migration by time-lapse video microscopy; assay type: cell-based; conditions: 10 μM, 3 days
442 kinases = test: KINOMEscan assay; assay type: binding; conditions: 10 μM
LNCaP and VCaP cells = test: Androgen-driven cell growth; assay type: cell-based, human; conditions: 3 or 6 days
PC3-M cells [5] = test: Boyden chamber cell invasion assay (SAR screen); assay type: cell-based, human
[6] = tested on: human prostate cells, including normal prostate epithelial cells, as well as primary and metastatic PCa cells; test: Cell invasion of human prostate cell panel; assay type: cell-based; conditions: 10 μM, 3 days
[7] = tested on: human PCa PC3-M cell orthotopic implants; test: Orthotopic murine model of human PCa metastasis; design: species or system mice; conditions: mouse, in vivo
Method: FIGS. 3A-D. KBU2046 inhibits cancer metastasis and prolongs life. (A, B) Inhibition of PCa metastasis. Cohorts of athymic mice bearing human PCa PC3-M cell orthotopic implants (A), or of non-tumor bearing athymic mice (B), were treated with KBU2046 incorporated into chow, and resultant lung metastasis (A) or plasma KBU2046 concentration (B) measured. Values are the mean±SEM. The relationship between dose and metastasis was evaluated by two-sided ANOVA (A). (C) Comprehensive characterization of KBU2046 phannacokinetics. CD1 mice were dosed with 100 mg KBU2046/kg via oral gavage or intravenous injection (iv), and blood collected at the indicated time points. The dotted horizontal line denotes a concentration of 24 nM, which was the concentration of KBU2046 measured in the blood of mice whose metastasis were suppressed by 92% (A, B). […]
Orthotopic implantation of human PCa cells and quantification of distant metastasis was performed as described (Pavese et al., 2013; herein incorporated by reference in its entirety). […] Quantification of KBU2046 plasma concentrations was performed by LCMS. […] Critical organs were examined for structural damage using a semi-quantitative histological scoring system (Knodell et al., 1981; herein incorporated by reference in its entirety), while their function was assessed by comprehensive clinical laboratory testing of blood samples. […]

[8] = tested on: estrogen-responsive genes in MCF-7 cells; test: Expression of estrogen-responsive genes by qRT/PCR; assay type: cell-based, human
[9] = tested on: protein phosphorylation (kinome) in PC3-M and PC3 cells; test: KinomeView phospho-motif antibody screen; assay type: cell-based, human; conditions: 10 μM, 3 days, ±TGFβ
Method: FIG. 14A-D. Proteomic analysis of the effects of KBU2046 on the kinome. Screening for effects on the kinome. PC3-M cells were pre-treated with 10 μM KBU2046, genistein or vehicle control for 3 days, then with ±TGFB, as indicated. Resultant cell lysate, as well as lysate from tumors from mice treated with 150 mg/kg KBU2046 or control mice (from manuscript FIG. 3A), were then probed with the KinomeView® panel of antibodies by Western blot. In instances where KBU2046 was inhibiting protein phosphorylation in cells and in tumors, a repeat experiment of PC3-M cells was conducted. In addition to including PC3-M cells, experiments were expanded to examine effects on PC3 cells. […] (C,D) All other Western blots of phospho-motif antibodies that were evaluated on initial screen. NI=tumor not informative; this denotes a tumor sample that yielded an abnormal coomassie blue staining pattern.
Screening for changes in the kinome induced by KBU2046 were evaluated with the Kinoview™ assay system. […]
The KinomeView® panel of antibodies (Cell Signaling Technology, Inc.) detects established protein phosphorylation motifs, and were was to probe for KBU2046-induced changes in protein phosphorylation (FIG. 5A; FIGS. 14A-D). […] Genistein was evaluated under identical treatment conditions for comparison. […]

200 different kinases = test: Kinex kinase assay system; assay type: biochemical, human; conditions: 1 and 10 μM
panel of 284 kinases = test: KinaseProfiler assay platform; assay type: biochemical; conditions: radiometric, competition with ATP
HSP90β/CDC37/CK = target: T2, HSP90β/CDC37/CK (Homo sapiens, UniProt P08238+Q16543); test: In vitro kinase assay with HSP90β, CDC37 and casein kinase; assay type: biochemical
T2 construct: made in house

[10] = tested on: AR transcriptional activity in LNCaP cells; test: PSA expression by qRT/PCR; assay type: cell-based, human
estrogen receptor (ER) = test: Estrogen-responsive promoter (pERE-Luc) luciferase assay; assay type: cell-based, human; conditions: MCF-7 cells, estrogen-free, 24 hours, micromolar concentrations
PC3-M cells [11] = test: Three day MTT cell growth inhibition assay; assay type: cell-based, human
CDC37 = target: T3, CDC37 (Homo sapiens, UniProt Q16543); test: Isothermal titration calorimetry, thermal shift and DARTS on single protein; assay type: binding; conditions: purified recombinant protein
T3 sequence (Q16543 1-378): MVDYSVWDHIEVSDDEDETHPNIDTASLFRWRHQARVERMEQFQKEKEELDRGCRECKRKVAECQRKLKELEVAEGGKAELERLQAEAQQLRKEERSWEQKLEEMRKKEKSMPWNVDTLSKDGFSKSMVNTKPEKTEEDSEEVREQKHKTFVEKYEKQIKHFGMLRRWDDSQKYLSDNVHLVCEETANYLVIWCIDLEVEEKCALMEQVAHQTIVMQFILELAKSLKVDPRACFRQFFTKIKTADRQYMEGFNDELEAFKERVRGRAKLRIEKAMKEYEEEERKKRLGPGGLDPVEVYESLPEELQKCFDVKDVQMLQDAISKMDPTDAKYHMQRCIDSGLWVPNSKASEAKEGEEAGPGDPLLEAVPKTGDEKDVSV

binding of HOP to HSP90β = target: T4, binding of HOP to HSP90β (Homo sapiens, UniProt P08238+Q16543); test: FLAG-HSP90β immunoprecipitation, silver stain and Western blot; assay type: cell-based; conditions: PC3-M cells, 10 uM, 24 hr
T4 construct: expressed in transfected cells; host or cells: PC3-M cells

MKK4 [12] = target: T1, MKK4; test: Fluorescence-based thermal shift assay; assay type: binding; conditions: purified recombinant MKK4

## O=C1c2ccccc2OCC1c1ccc(F)cc1 (racemic) [KBU2046, 4′-fluoroisoflavanone]
HSP90β
  binding to HSP90β alone: no evidence of KBU2046 binding
[1]
  downstream phosphorylation of p38 MAPK or HSP27 in cells: does not inhibit downstream phosphorylation of p38 MAPK or of HSP27 in cells
MKK4 [2]
  inhibition of MKK4 kinase activity: does not inhibit MKK4
[3]
  survival: significantly prolonged the survival
20 phosphatases
  inhibition of phosphatase activity: No evidence supports inhibition of phosphatase activity
[4]
  inhibition of cell migration: inhibited the migration
442 kinases
  inhibition of kinase binding to immobilized substrate: completely negative
LNCaP and VCaP cells
  androgen-driven cell growth: inhibit androgen-driven cell growth
PC3-M cells [5]; PC3-M cells treated with 10 compound for 3 days
  effect on cell invasion (anti-invasion activity): anti-invasive efficacy at least equal to that of the starting compound
PC3-M cells [5]; PC3-M cells, ±TGFβ
  anti-invasion efficacy with TGFβ: greater efficacy under conditions of TGFβ treatment
[6]
  inhibition of cell invasion relative to genistein: inhibits cell invasion equal-to-or-greater-than that of genistein
[7]
  primary tumor cell growth: does not inhibit primary tumor cell growth
[8]
  activation of estrogen-responsive genes: did not activate estrogen-responsive genes
[9]
  changes in protein phosphorylation: only a decrease in intensity of an 83 kDa protein band met the pre-specified criteria
200 different kinases
  inhibition of ATP binding to kinases: completely negative
Panel of 284 kinases
  inhibition of kinase activity: no evidence that KBU2046 inhibits kinase activity
HSP90β/CDC37/CK
  CK kinase activity: does not modulate CK kinase activity
HSP90β/CDC37/CK; recombinant HSP90β, CDC37 and CK
  CK-mediated phosphorylation of HSP90β: increased CK-mediated phosphorylation of HSP90β
[10]; 3 days treatment
  effect on bicalutamide efficacy (PSA): increases the therapeutic efficacy of bicalutamide
[10]; LNCaP cells, CSS, 1.0 nM R1881, 1 or 3 days
  R1881-mediated PSA expression: inhibited R1881-mediated PSA expression
[10]; LNCaP cells, charcoal stripped serum, 10 uM
  PSA expression, agent by itself: had no effect by itself
Estrogen receptor (ER)
  activation of the estrogen receptor (pERE-Luc luciferase): does not activate the estrogen receptor
PC3-M cells [11]
  cell growth inhibition: no growth inhibitory effects
CDC37
  binding to CDC37 alone: no evidence of KBU2046 binding
Binding of HOP to HSP90β
  binding of HOP to HSP90β: disrupted binding of a ˜60 kDa protein
MKK4 [12]
  binding to MKK4: does not bind to MKK4
